The target in assay [1] is human IGF-1 displayed on bacteriophage particles (phage vector pIGF-g3) (human) (UniProt P05019). Kind of assay: competition phage ELISA: IGF-1 phage preincubated with soluble IGFBP-3, residual binding to immobilized IGFBP-3 read at OD450.
For assay [2] the target is unchanged. Kind of assay: competition phage ELISA: IGF-1 phage preincubated with soluble IGFBP-1, residual binding to immobilized IGFBP-1 read at OD450.

Sequences of proteins named here, by UniProt entry; tags and fusion partners are left off. A change or cut given only in a name is not applied to a line headed by its entry. Residues count along the entry.
UniProt P05019: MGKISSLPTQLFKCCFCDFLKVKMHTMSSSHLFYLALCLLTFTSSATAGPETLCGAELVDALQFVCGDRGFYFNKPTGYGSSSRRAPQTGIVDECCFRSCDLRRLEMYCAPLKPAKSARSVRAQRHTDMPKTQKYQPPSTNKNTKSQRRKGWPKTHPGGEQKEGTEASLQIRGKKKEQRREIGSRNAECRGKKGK
UniProt P17936, residues 28-291: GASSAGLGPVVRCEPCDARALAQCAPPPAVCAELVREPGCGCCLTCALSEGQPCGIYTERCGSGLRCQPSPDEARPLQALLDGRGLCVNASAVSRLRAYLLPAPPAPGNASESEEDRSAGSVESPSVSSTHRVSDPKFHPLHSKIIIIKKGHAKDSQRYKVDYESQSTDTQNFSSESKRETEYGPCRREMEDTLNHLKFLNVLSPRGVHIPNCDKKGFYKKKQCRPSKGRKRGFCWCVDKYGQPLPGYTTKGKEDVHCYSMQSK

Experimental findings from US20060287510A1 (Genentech, published 2006) are described below.

Results are given in words; binding and its absence hold for the method and conditions named. Some results given as binding are weak or reduced against the parent protein; the word gives no strength.

For IGFBP-3 (from UniProt P17936 28-291), the binding entry in assay [1] is recorded as “binds”.

B1: IGFBP-1 (protein, UniProt P08833 26-259, looked up)
chain: APWQCAPCSAEKLALCPPVSASCSEVTRSAGCGCCPMCALPLGAACGVATARCARGLSCRALPGEQQPLHALTRGQGACVQESDASAPHAAEAGSPESPESTEITEEELLDNFHLMAPSEEDHSILWDAISTYDGSKALHVTNIKKWKEPCRIELYRVVESLAKAQETSGEEISKFYLPNCNKNGFYHSRQCETSMDGEAGLCWCVYPWNGKRIPGSPEIRGDPNCQIYFNVQN
Turning to B1, in assay [2], the binding entry is on record as “binds”.
